Where a name gives a salt, the structure may show the parent alone. ± gives the standard deviation of the averaged measurements. The list shows a part of the results. The data scatter; read single values as rough.
test system: hAMSC donor 2; experiment: transgenic luciferase activity (RLU/mg protein) fold change vs vehicle control (ratio); hAMSC are human adipose-derived mesenchymal stem cells given an EGFP-luciferase plasmid by lipofection; higher = more transgene expression; conditions: priming compound concentration 1.7 µM

Compound | transgenic luciferase activity
Nc1ccn([C@@H]2O[C@H](CO)[C@@H](O)[C@@H]2O)c(=O)n1 [Cytarabine] | 0.825 ± 0.026
COc1cccc2c1C(=O)c1c(O)c3c(c(O)c1C2=O)C[C@@](O)(C(C)=O)C[C@@H]3O[C@H]1C[C@H](N)[C@H](O)[C@H](C)O1 [Daunorubicin hydrochloride] | 2.41 ± 0.078
COc1ccc(CN2CCN(C(c3ccc(F)cc3)c3ccc(F)cc3)CC2)c(OC)c1OC [Lomerizine dihydrochloride] | 0.417 ± 0.034
CN[C@@H]1[C@H](O)[C@H](NC)[C@H]2O[C@@]3(O)C(=O)C[C@@H](C)O[C@H]3O[C@@H]2[C@H]1O [Spectinomycin] | 0.393 ± 0.26
N[C@@H]1CONC1=O [D-Cycloserine] | 0.383 ± 0.19
Cc1nc2ccccn2c(=O)c1CCN1CCC(C(=O)c2ccc(F)cc2)CC1 [Pirenperone] | 0.923 ± 0.042
CC(C)(C(=O)O)c1ccc(C(O)CCCN2CCC(C(O)(c3ccccc3)c3ccccc3)CC2)cc1 (stereo not drawn) [Fexofenadine hydrochloride] | 0.647 ± 0.096
CC1CNc2c(cccc2S(=O)(=O)N[C@@H](CCCNC(=N)N)C(=O)N2CC[C@@H](C)C[C@@H]2C(=O)O)C1 (stereo partly drawn) [Argatroban] | 0.316 ± 0.17
O=c1[nH]cnc2c1ncn2[C@H]1CC[C@@H](CO)O1 [Didanosine] | 0.795 ± 0.13
CC(C)NCC(O)COc1ccc(COCCOC(C)C)cc1 (stereo not drawn) [Bisoprolol fumarate] | 0.97 ± 0.17
O=C1N(c2ccccc2)c2ccccc2C1(Cc1ccncc1)Cc1ccncc1 [Linopirdine dihydrochloride] | 0.313 ± 0.13
C[C@@H]1CN(CCCn2c3ccccc3c3ccccc32)C[C@H](C)N1 [Rimcazole dihydrochloride] | 0.445 ± 0.12
Nc1nc2ccc(OC(F)(F)F)cc2s1 [Riluzole hydrochloride] | 1.04 ± 0.21
NC(N)=Nc1nc(CSCC/C(N)=N/S(N)(=O)=O)cs1 [Famotidine] | 1.01 ± 0.12
CN(C)CCN(Cc1ccccc1)c1ccccn1 [Tripelennamine hydrochloride] | 0.797 ± 0.025

same assay, conditions: priming compound concentration 13 µM

Compound | transgenic luciferase activity
O=C1NC(=O)C(c2ccccc2)(c2ccccc2)N1 [Dilantin] | 0.552 ± 0.11
O=C1CN(/N=C/c2ccc(-c3ccc([N+](=O)[O-])cc3)o2)C(=O)N1 [Dantrolene sodium] | 0.557 ± 0.16
CCN(CC)CC(=O)Nc1c(C)cccc1C [Lidocaine] | 0.685 ± 0.2
C=CC[C@@H]1/C=C(\C)C[C@H](C)C[C@H](OC)[C@H]2O[C@@](O)(C(=O)C(=O)N3CCCC[C@H]3C(=O)O[C@H](/C(C)=C/[C@@H]3CC[C@@H](O)[C@H](OC)C3)[C@H](C)[C@@H](O)CC1=O)[C@H](C)C[C@@H]2OC [Tacrolimus] | 0.651 ± 0.05
O=C(O)CCCc1ccccc1 [4-Phenylbutyric acid] | 0.832 ± 0.18
CC(C)(C(=O)c1cccnc1)c1cccnc1 [Metyrapone] | 0.572 ± 0.093
Clc1ccc(CO/N=C(\Cn2ccnc2)c2ccc(Cl)cc2Cl)c(Cl)c1 [Oxiconazole nitrate] | 0.451 ± 0.1
CN1CCN(CCCN2c3ccccc3Sc3ccc(Cl)cc32)CC1 [Prochlorperazine maleate] | 0.379 ± 0.11
C#C[C@]1(O)CC[C@H]2[C@@H]3CCc4cc(OC)ccc4[C@H]3CC[C@@]21C [Mestranol] | 0.726 ± 0.95
COc1cccc2c1C(=O)c1c(O)c3c(c(O)c1C2=O)C[C@@](O)(C(C)=O)C[C@@H]3O[C@H]1C[C@H](N)[C@H](O)[C@H](C)O1 [Daunorubicin hydrochloride] | 0.00392 ± 0.0043
CC/C(=C(\c1ccccc1)c1ccc(OCCN(C)C)cc1)c1ccccc1 [Tamoxifen] | 0.437 ± 0.023
COc1ccc(CN2CCN(C(c3ccc(F)cc3)c3ccc(F)cc3)CC2)c(OC)c1OC [Lomerizine dihydrochloride] | 0.104 ± 0.03
CC(C)NCC(O)COc1cccc2ccccc12 (stereo not drawn) [Propranolol hydrochloride] | 0.676 ± 0.4
CN[C@@H]1[C@H](O)[C@H](NC)[C@H]2O[C@@]3(O)C(=O)C[C@@H](C)O[C@H]3O[C@@H]2[C@H]1O [Spectinomycin] | 0.473 ± 0.088
C=C[C@H]1CN2CC[C@H]1C[C@@H]2[C@@H](O)c1ccnc2ccc(OC)cc12 [Quinidine] | 0.531 ± 0.16
N[C@@H]1CONC1=O [D-Cycloserine] | 0.572 ± 0.092
CC(C)NCC(O)c1ccc(O)c(O)c1 (stereo not drawn) [Isoproterenol hydrochloride] | 0.752 ± 0.16
NC(=O)c1cccnc1 [Nicotinamide] | 0.542 ± 0.14

Source: the supplement of paper PMC7238544
